Square brackets hold non-standard residues; d marks the D form. * marks the point of attachment. Boc = CC(C)(C)OC(=O)*; Acm = CC(=O)NC*; Mpa = O=C(O)CCS

These results are taken from patent publication US5500413 (dated 1996).

The data set can be described thus: general procedure: solution-phase peptide synthesis; p-nitrophenyl active esters; azide coupling (isoamylnitrite); DCC/HOBt. Particulars: diacetate.

As for [Mpa](Acm)YFQNC(Acm)P-OH, the step yield came to 85%.
In turn, Boc-QNC(Acm)P-OH returned a step yield of 78.5%.
As for “Mpa(Acm)-Tyr-Phe-Gln-Asn-Cys(Acm)-Pro-D-Arg(HCl)-Gly-NH2”, the step yield amounted to 84.9%. In addition, the “crude HPLC purity” value (coupling step, HPLC) is 94.5%.
